PubChem BioAssay AID1259308 | NCATS | 2017
Aim: 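Candidate targets for better recombinant protein yield in mammalian cells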 (primary screen). Cells: human HEK293 embryonic kidney cells stably expressing firefly luciferase (HEK-CMV-Luc2-Hygro). Reagent: single siRNA against human genes, 0.8 pmol siRNA per well. Time to read-out: 72 h. Read-out: 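Luciferase light (ONE-Glo) measured on one replicate plate set and viability (CellTiter-Glo) on the other, scaled to a negative control siRNA, with robust z-scores and luciferase per cell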. Reading the numbers: total luciferase, z-score and total luciferase, % of control: higher = more reporter protein produced; luciferase per cell, z-score: higher = more reporter output per viable cell; viable cells, % of control: higher = more viable cells. Active means: 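An siRNA counts as active if its total luciferase robust z-score exceeds 3; genes with two or more such siRNAs out of three were retested with fresh siRNAs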. Meaning of the calls: active = raised luciferase; inactive = no rise.
This is a random part of about 59,000 deposited reagents. About 1,510 of all reagents (2.6%) count as active. 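Calls use total luciferase alone and ignore viability, so some active siRNAs may act by altering cell number.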 Entries without a mark were called inactive. Reagents against one gene are numbered here.

target | siRNA no. | total luciferase, z-score | total luciferase, % of control | luciferase per cell, z-score | viable cells, % of control
CYB5B (cytochrome b5 type B) | 1 | -0.679 | 68.4 | -0.102 | 78.5
CYB5B (cytochrome b5 type B) | 2 | -0.254 | 76.8 | -0.335 | 93.8
CYB5B (cytochrome b5 type B) | 3 | 0.453 | 90.9 | 0.638 | 85.9
GAL3ST1 (galactose-3-O-sulfotransferase 1) | 1 | 0.495 | 91.7 | 2.1 | 59
GAL3ST1 (galactose-3-O-sulfotransferase 1) | 2 | -0.505 | 71.8 | -0.0355 | 81
GAL3ST1 (galactose-3-O-sulfotransferase 1) | 3 | 1.15 | 105 | 0.657 | 98.5
FBLL1 (fibrillarin like rRNA 2'-O-methyltransferase 1) | 1 | 0.536 | 92.5 | 0.547 | 89.5
FBLL1 (fibrillarin like rRNA 2'-O-methyltransferase 1) | 2 | 0.811 | 98 | 1.2 | 80
FBLL1 (fibrillarin like rRNA 2'-O-methyltransferase 1) | 3 | -0.968 | 62.6 | -0.817 | 86.8
CORT (cortistatin) | 1 | 1.45 | 111 | 0.882 | 98
CORT (cortistatin) | 2 | 1.69 | 116 | 1.2 | 94.1
CORT (cortistatin) | 3 | 1.01 | 102 | 1.07 | 85.9
ZNF471 (zinc finger protein 471) | 1 | -0.317 | 75.6 | -0.409 | 94
ZNF471 (zinc finger protein 471) | 2 | -1.17 | 58.6 | -1.57 | 99
ZNF471 (zinc finger protein 471) | 3 | 0.98 | 101 | 0.442 | 101
ISY1 (ISY1 spliceosome associated protein) | 1 | 2.76 | 137 | 4.89 | 42.2
ISY1 (ISY1 spliceosome associated protein) | 2 | 0.242 | 86.7 | 1.68 | 62.3
ISY1 (ISY1 spliceosome associated protein) | 3 | 2.9 | 140 | 4.59 | 46.6
ULK2 (unc-51 like autophagy activating kinase 2) | 1 | -1.05 | 61 | -1.75 | 108
ULK2 (unc-51 like autophagy activating kinase 2) | 2 | -0.372 | 74.5 | -0.679 | 99.5
ULK2 (unc-51 like autophagy activating kinase 2) | 3 | 0.0976 | 83.8 | -0.783 | 115
RAD50 (RAD50 double strand break repair protein) | 1 | 0.474 | 91.3 | 0.728 | 84.2
RAD50 (RAD50 double strand break repair protein) | 2 | 0.792 | 97.6 | 0.445 | 97.1
RAD50 (RAD50 double strand break repair protein) | 3 | -0.18 | 78.3 | -0.303 | 94.8
RNF2 (ring finger protein 2) | 1 | -0.109 | 79.7 | -0.178 | 93.4
RNF2 (ring finger protein 2) | 2 | -1.44 | 53.3 | -0.469 | 67.4
RNF2 (ring finger protein 2) | 3 | 0.476 | 91.3 | 0.303 | 94.2
COL6A2 (collagen type VI alpha 2 chain) | 1 | -0.0862 | 80.2 | -0.0131 | 89.9
COL6A2 (collagen type VI alpha 2 chain) | 2 | -0.577 | 70.4 | 0.00126 | 78.6
COL6A2 (collagen type VI alpha 2 chain) | 3 | -1.39 | 54.2 | -1.43 | 88.2
GABRB3 (gamma-aminobutyric acid type A receptor subunit beta3) | 1 | 1.05 | 103 | 0.211 | 109
GABRB3 (gamma-aminobutyric acid type A receptor subunit beta3) | 2 | -0.684 | 68.3 | -1.58 | 116
GABRB3 (gamma-aminobutyric acid type A receptor subunit beta3) | 3 | -1.32 | 55.5 | -0.295 | 67.1
SLC35G3 | 1 | -2.59 | 30.4 | -3.59 | 87.6
SLC35G3 | 2 | -1.04 | 61.1 | -1.84 | 111
SLC35G3 | 3 | -1.97 | 42.7 | -0.145 | 49.6
CASS4 (Cas scaffold protein family member 4) | 1 | 0.152 | 84.9 | 1.46 | 64.5
CASS4 (Cas scaffold protein family member 4) | 2 | 0.348 | 88.8 | -0.261 | 106
CASS4 (Cas scaffold protein family member 4) | 3 | 1.12 | 104 | 0.493 | 102
BTBD2 (BTB domain containing 2) | 1 | -0.855 | 64.9 | -1.45 | 106
BTBD2 (BTB domain containing 2) | 2 | -0.264 | 76.6 | -0.282 | 92.2
BTBD2 (BTB domain containing 2) | 3 | 0.0149 | 82.2 | -0.499 | 105
TRIM16 (tripartite motif containing 16) | 1 | 0.14 | 84.7 | 0.349 | 86.3
TRIM16 (tripartite motif containing 16) | 2 | 0.635 | 94.5 | 0.482 | 93
TRIM16 (tripartite motif containing 16) | 3 | -0.121 | 79.5 | -0.0145 | 89.2
PRRX2 (paired related homeobox 2) | 1 | -0.448 | 73 | -0.835 | 102
PRRX2 (paired related homeobox 2) | 2 | -1.47 | 52.7 | -0.309 | 63.9
PRRX2 (paired related homeobox 2) | 3 | 0.729 | 96.4 | 1.51 | 72.4
RAX (retina and anterior neural fold homeobox) | 1 | -1.08 | 60.4 | -0.73 | 81.8
RAX (retina and anterior neural fold homeobox) | 2 | -0.531 | 71.3 | -0.748 | 97
RAX (retina and anterior neural fold homeobox) | 3 | 0.151 | 84.9 | -0.505 | 108
NOLC1 (nucleolar and coiled-body phosphoprotein 1) | 1 | 1.07 | 103 | 0.614 | 98.1
NOLC1 (nucleolar and coiled-body phosphoprotein 1) | 2 | -0.0531 | 80.8 | -0.121 | 93.3
NOLC1 (nucleolar and coiled-body phosphoprotein 1) | 3 | 0.307 | 88 | -0.22 | 104
PRDX5 (peroxiredoxin 5) | 1 | -1.17 | 58.7 | -1.57 | 99.2
PRDX5 (peroxiredoxin 5) | 2 | 0.334 | 88.5 | 0.286 | 91.7
PRDX5 (peroxiredoxin 5) | 3 | 0.0182 | 82.2 | -0.169 | 96.1

Individual results from above.
For “total luciferase, z-score”, RNF2 (ring finger protein 2) #2 has -1.44
GAL3ST1 (galactose-3-O-sulfotransferase 1) #1, total luciferase, % of control → 91.7
For “total luciferase, z-score”, SLC35G3 #2 reads -1.04
FBLL1 (fibrillarin like rRNA 2'-O-methyltransferase 1) #1, luciferase per cell, z-score: 0.547
Under “total luciferase, z-score”, RAD50 (RAD50 double strand break repair protein) #3 has -0.18
Result for PRDX5 (peroxiredoxin 5) #2 under “luciferase per cell, z-score”: 0.286
